{"source": "the supplement of paper PMC10338343", "note": "± gives the standard deviation. This is a selection; strong and weak results do not stand in their true shares. The uncertainty is large for many entries.", "data": [{"system": "MILI (PIWIL2) piRISC loaded with L1MC piRNA (26 nt)", "assay": "pre-steady-state target cleavage rate (min^-1); MIWI and MILI are mouse PIWI proteins and EfPiwi is from a freshwater sponge; tags in brackets are library labels; higher = faster piRNA-guided slicing of the target", "details": "guide: L1MC piRNA 5'p-UAACUAAAUACUAUGCAAGCUGUAGG; auxiliary factor: none (no GTSF1)", "method_in_brief": "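With or without 500 nM GTSF1 partner protein, 1 nM active affinity-purified piRISC carrying one synthetic guide was mixed with 0.1 nM transcribed, DNA-blocked target RNA library in HEPES–potassium acetate buffer at 33 °C for 0–8 or 0–960 min. Uncleaved targets were sequenced and normalised to depth and to weakly complementary targets, three trials were pooled, and k3 was capped at 0.0001 min^-1. The pre-steady-state cleavage rate came from a burst-and-steady-state fit.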", "values": [{"sequence": "UCCUGGAUGUCCUUGGAUUGUAUUUAGUUA", "pre-steady-state target cleavage rate": "0.000735 ± 0.0066"}, {"sequence": "UCCUGGUACAGCUUGCUUAGUAUUUAGAAA", "pre-steady-state target cleavage rate": "0.00175 ± 0.0041"}, {"sequence": "UCCUCCUACAGCUUGCAUAGUAAUUAGUAA", "pre-steady-state target cleavage rate": "0.00203 ± 0.0031"}, {"sequence": "UCCUCCAACAGCUUGCAUAGUAUUUAGAAA", "pre-steady-state target cleavage rate": "0.00205 ± 0.0038"}, {"sequence": "UCCUGGAACAGCUUGCAUAGUAAAAUCAAA", "pre-steady-state target cleavage rate": "0.00141 ± 0.0044"}, {"sequence": "UCCUGGAACAGCUUGCAUAGAAUUUUGUUA", "pre-steady-state target cleavage rate": "0.00149 ± 0.0038"}, {"sequence": "UCCUGGAUGUCGAACGUAUGUAUUUAGUA", "pre-steady-state target cleavage rate": "< 0.0001"}, {"sequence": "UCCUGCUAGAGCUUGCAUAGUAUUUAGAUA", "pre-steady-state target cleavage rate": "0.00164 ± 0.0037"}, {"sequence": "UCCUGGUACAGCUUGCAAAGUAUUUUGUUA", "pre-steady-state target cleavage rate": "0.00273 ± 0.0032"}, {"sequence": "UCCUGGAUGUCGAACGUAAGUAUUUAGUGUA", "pre-steady-state target cleavage rate": "0.000183 ± 0.033"}, {"sequence": "UCCUGGUACAGCUUGGAUAGUAUUUAGUAA", "pre-steady-state target cleavage rate": "0.00278 ± 0.003"}, {"sequence": "UCCUGGAUGUCGAACGAUACAUUUUAGUUA", "pre-steady-state target cleavage rate": "0.000196 ± 0.018"}, {"sequence": "UCCUGGAUGUCGAACGUUAGUAUUUAGUCA", "pre-steady-state target cleavage rate": "0.000111 ± 0.034"}, {"sequence": "UCCUGCUACUGCUUGCAUAGUAUUUACUUA", "pre-steady-state target cleavage rate": "0.00252 ± 0.0032"}, {"sequence": "UCCUGGUACAGCUUGCAUAGAAUUAAGUUA", "pre-steady-state target cleavage rate": "0.00194 ± 0.0045"}, {"sequence": "UCCUGGAUGUCGAACGUUAGUAUGUAGUUA", "pre-steady-state target cleavage rate": "0.000169 ± 0.028"}, {"sequence": "UCCUGGAUGUCGAACGUAAGUGUUUAGUUA", "pre-steady-state target cleavage rate": "0.000184 ± 0.021"}, {"sequence": "UCCUGGAUGUCGAACCAUAGUAUAAUGUUA", "pre-steady-state target cleavage rate": "0.000288 ± 0.015"}, {"sequence": "UCCUGGAUGUCGUUGCAUUGUAUAUAGUUA", "pre-steady-state target cleavage rate": "0.000463 ± 0.015"}, {"sequence": "UCCUGGAUGAGCUUGCAUAGAAUAUAGUUA", "pre-steady-state target cleavage rate": "0.00118 ± 0.0055"}, {"sequence": "UCCUGGAUGUCGAACGAUAGUAUUUUAGUUA", "pre-steady-state target cleavage rate": "0.000125 ± 0.04"}, {"sequence": "UCCUGCUACAGCUUCCAUAGUAUUUAGUUA", "pre-steady-state target cleavage rate": "0.0015 ± 0.0037"}, {"sequence": "UCCUGGAUGUCGAACGUAUGUUAAUAGUUA", "pre-steady-state target cleavage rate": "0.000108 ± 0.04"}, {"sequence": "UCCUGGAACAGCAUGCAUAGUAUUUAGAUA", "pre-steady-state target cleavage rate": "0.00207 ± 0.0035"}, {"sequence": "UCCUGCUUCAGCUUGCAUAGUAUUUACAAA", "pre-steady-state target cleavage rate": "0.00169 ± 0.0027"}, {"sequence": "UCCUGCUAGAGCUUGCAUACUAUUUAGUUA", "pre-steady-state target cleavage rate": "0.00202 ± 0.0045"}, {"sequence": "UCCUGGAUGAGCUUGCAUAGUAUUUCGUUA", "pre-steady-state target cleavage rate": "0.00132 ± 0.0061"}, {"sequence": "UCCUGGAUGUCGAACGUUAGUAUAUAGUAA", "pre-steady-state target cleavage rate": "0.000261 ± 0.019"}, {"sequence": "UCCUGGAUCAGCUUGCAUAGUAUUUCAGUUA", "pre-steady-state target cleavage rate": "0.00235 ± 0.0036"}, {"sequence": "UCCUGGUACAGCUUGCGAUAGUAUUUAGUUA", "pre-steady-state target cleavage rate": "0.00111 ± 0.0067"}, {"sequence": "UCCUGGAUGUCGAAGCAUAGUAUUAUGUUA", "pre-steady-state target cleavage rate": "0.00101 ± 0.0067"}, {"sequence": "UCCUGGAUGUCGAACGUAAGUAUUUAGGUUA", "pre-steady-state target cleavage rate": "0.000283 ± 0.019"}, {"sequence": "UCCUGGAUGUCCUUGCAUAGCAUUUAGUUA", "pre-steady-state target cleavage rate": "0.00178 ± 0.0035"}, {"sequence": "UCCUGGAUGAGCUUGCAUAGUAUUAACUUA", "pre-steady-state target cleavage rate": "0.00102 ± 0.0062"}, {"sequence": "UCCUGGAUGUGCUUGCAUAGUAUUAAGAUA", "pre-steady-state target cleavage rate": "0.000761 ± 0.0074"}, {"sequence": "UCCUGGAACAGCUUGCUUAGAAUUUAGUUA", "pre-steady-state target cleavage rate": "0.0014 ± 0.0035"}, {"sequence": "UCCUGCAUGAGCUUGCAUAGUAUUUAGAAA", "pre-steady-state target cleavage rate": "0.00129 ± 0.0043"}, {"sequence": "UCCUGGAUGUCGAACGUAUCUGUUUAGUUA", "pre-steady-state target cleavage rate": "0.000212 ± 0.017"}, {"sequence": "UCCUGGAUCAGCUUGCAUAGUAUUUAGCUUA", "pre-steady-state target cleavage rate": "0.00282 ± 0.0034"}]}]}
